PubChem BioAssay AID504804, Drosophila RNAi Screening Center | 2011

- Assay: 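Fly genes whose loss lessens doxorubicin-driven cell death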 (primary screen)
- Cells: Drosophila Kc cells
- Reagents: long dsRNA against Drosophila genes, 0.5 µg dsRNA per well
- Duration: 96 h (48 h knock-down, then 48 h drug)
- Treatment: doxorubicin 5 µg/ml for 48 h, added 48 h after dsRNA
- Detection: 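Luminescent ATP counts per replicate, not normalised, reflecting viable cells after 48 h dsRNA knock-down followed by 48 h of 5 µg/ml doxorubicin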
- Reading the numbers: raw ATP luminescence: higher = more viable cells, protection from doxorubicin
- Call rule: 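Active when both duplicate wells lie at least 2 SD above the plate mean and protection is confirmed by rescreening and independent dsRNAs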
The deposit covers about 19,000 reagents; shown is an unselected part of those that have a named target and a result. Over the whole deposit, 47 (0.25%) are marked active. 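Signals are raw, not normalised; exact z-scores behind calls not deposited; actives needed confirmation, so some wells reaching 2 SD are inactive.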 A number with no mark means an inactive call. The numbers tell different reagents against one gene apart. Names joined by + are all predicted targets of the reagent.

Which result is listed for CG4972 (GeneID 34388)?
raw ATP luminescence, replicate 1: 44130; raw ATP luminescence, replicate 2: 63553

For CG5928 (GeneID 31539), what was measured?
raw ATP luminescence, replicate 1: 55020; raw ATP luminescence, replicate 2: 45850

For GluProRS (GeneID 42834), what does the deposit list?
raw ATP luminescence, replicate 1: 63267; raw ATP luminescence, replicate 2: 43630

What is on record for CG42812 + CG42811 #1?
raw ATP luminescence, replicate 1: 82210; raw ATP luminescence, replicate 2: 85310

With CG42812 + CG42811 #2, how do the results read?
raw ATP luminescence, replicate 1: 67330; raw ATP luminescence, replicate 2: 59480

With CG4884 (GeneID 43357), how do the results read?
raw ATP luminescence, replicate 1: 48890; raw ATP luminescence, replicate 2: 59640

With CG16976 (retired record) (GeneID 38336), what does the deposit list?
raw ATP luminescence, replicate 1: 51097; raw ATP luminescence, replicate 2: 54960

How did the screen score CG12182 (GeneID 38324)?
raw ATP luminescence, replicate 1: 91737; raw ATP luminescence, replicate 2: 76020

For Trpml + CG42638, what was measured?
raw ATP luminescence, replicate 1: 19037; raw ATP luminescence, replicate 2: 17307

For CG7196 (retired record) (GeneID 34057) #1, how do the results read?
raw ATP luminescence, replicate 1: 3.18e5; raw ATP luminescence, replicate 2: 2.93e5

Which result is listed for CG7196 (retired record) (GeneID 34057) #2?
raw ATP luminescence, replicate 1: 36150; raw ATP luminescence, replicate 2: 56583

With CG33493 (GeneID 2768994), what was measured?
raw ATP luminescence, replicate 1: 70167; raw ATP luminescence, replicate 2: 60317

How did the screen score Gr22b (GeneID 117492)?
raw ATP luminescence, replicate 1: 2.03e5; raw ATP luminescence, replicate 2: 3.13e5

With Arl4 (GeneID 43771), what was measured?
raw ATP luminescence, replicate 1: 52130; raw ATP luminescence, replicate 2: 40160

What did the screen give for CG33303 (GeneID 2768916)?
raw ATP luminescence, replicate 1: 47993; raw ATP luminescence, replicate 2: 75133

What is on record for baz (GeneID 32703)?
raw ATP luminescence, replicate 1: 4.10e5; raw ATP luminescence, replicate 2: 3.31e5

What is on record for Cyp9b2 (GeneID 35635)?
raw ATP luminescence, replicate 1: 49053; raw ATP luminescence, replicate 2: 79823

For RpS28a (GeneID 43564), what was measured?
raw ATP luminescence, replicate 1: 44750; raw ATP luminescence, replicate 2: 44080

With ago (GeneID 38516), what was measured?
raw ATP luminescence, replicate 1: 29887; raw ATP luminescence, replicate 2: 34413

With Arr2 (GeneID 38993), what was measured?
raw ATP luminescence, replicate 1: 70047; raw ATP luminescence, replicate 2: 93553

What did the screen give for CG10062 (GeneID 37224)?
raw ATP luminescence, replicate 1: 78220; raw ATP luminescence, replicate 2: 69257

What is on record for CG12934 (GeneID 36124)?
raw ATP luminescence, replicate 1: 28703; raw ATP luminescence, replicate 2: 50737

With lmgA + lmgB, what does the deposit list?
raw ATP luminescence, replicate 1: 42737; raw ATP luminescence, replicate 2: 81387

With grnd (GeneID 35103), what was measured?
raw ATP luminescence, replicate 1: 35400; raw ATP luminescence, replicate 2: 39503

What did the screen give for CG8003 (GeneID 39210)?
raw ATP luminescence, replicate 1: 34983; raw ATP luminescence, replicate 2: 59903

For ppk20 (GeneID 43486), what was measured?
raw ATP luminescence, replicate 1: 53550; raw ATP luminescence, replicate 2: 49880

For CG31200 (GeneID 326124), what was measured?
raw ATP luminescence, replicate 1: 59060; raw ATP luminescence, replicate 2: 61370

With CG17359 (GeneID 39549), how do the results read?
raw ATP luminescence, replicate 1: 62610; raw ATP luminescence, replicate 2: 47120
